Data as given in patent publication US20220169740A1.
No constants are given. Whether binding was seen depends on the method and setting. A result given as binding can be weak or reduced; the word gives no strength. Where a sequence is shown, tags or fusion partners need not be part of it. One block for each binder: values may come before it.

Experiments:
[1] = target: canine FcRn with a poly-His tag / canine B2M heterodimer complex (canine); experiment: off-rate screen at pH 6; SASA-tagged Fc from E. coli culture media captured on immobilised BSA (plate or Biacore chip), soluble canine FcRn/B2M complex
[2] = target: canine FcRn with a poly-His tag / canine B2M heterodimer complex (canine); experiment: SPR (Biacore) sensorgram, FIG. 6
[3] = target: canine FcRn with a poly-His tag / canine B2M heterodimer complex (canine); experiment: SPR (Biacore) sensorgram, FIG. 7
[4] = target: canine FcRn with a poly-His tag / canine B2M heterodimer complex (canine); experiment: SPR (Biacore) sensorgram, FIG. 8
[5] = target: canine FcRn with a poly-His tag / canine B2M heterodimer complex (canine); experiment: SPR (Biacore) sensorgram, FIG. 5

B1: variant canine IgG-B Fc polypeptide L(23)Y (protein, not shown: small tags and cut ends)
chain: PAPEMLGGPSVFIFPPKPKDTLYIARTPEVTCVVVDLDPEDPEVQISWFVDGKQMQTAKTQPREEQFNGTYRVVSVLPIGHQDWLKGKQFTCKVNNKALPSPIERTISKARGQAHQPSVYVLPPSREELSKNTVSLTCLIKDFFPPDIDVEWQSNGQQEPESKYRTTPPQLDEDGSYFLYSKLSVDKSRWQRGDTFICAVMHEALHNHYTQESLSHSPGK
binding [1]: binds | binding [2]: binds

B3: variant canine IgG-B Fc polypeptide L(23)M (protein, not shown: small tags and cut ends)
chain: PAPEMLGGPSVFIFPPKPKDTLMIARTPEVTCVVVDLDPEDPEVQISWFVDGKQMQTAKTQPREEQFNGTYRVVSVLPIGHQDWLKGKQFTCKVNNKALPSPIERTISKARGQAHQPSVYVLPPSREELSKNTVSLTCLIKDFFPPDIDVEWQSNGQQEPESKYRTTPPQLDEDGSYFLYSKLSVDKSRWQRGDTFICAVMHEALHNHYTQESLSHSPGK
binding [4]: binds | binding [1]: binds

Further lines, results first:

binding [3]: binds | binding [1]: binds
B2: variant canine IgG-B Fc polypeptide L(23)F (protein, not shown: small tags and cut ends)
chain: PAPEMLGGPSVFIFPPKPKDTLFIARTPEVTCVVVDLDPEDPEVQISWFVDGKQMQTAKTQPREEQFNGTYRVVSVLPIGHQDWLKGKQFTCKVNNKALPSPIERTISKARGQAHQPSVYVLPPSREELSKNTVSLTCLIKDFFPPDIDVEWQSNGQQEPESKYRTTPPQLDEDGSYFLYSKLSVDKSRWQRGDTFICAVMHEALHNHYTQESLSHSPGK

binding [1]: binds
B4: variant canine IgG-B polypeptide L(23)S (protein, not shown: small tags and cut ends)
chain: PAPEMLGGPSVFIFPPKPKDTLSIARTPEVTCVVVDLDPEDPEVQISWFVDGKQMQTAKTQPREEQFNGTYRVVSVLPIGHQDWLKGKQFTCKVNNKALPSPIERTISKARGQAHQPSVYVLPPSREELSKNTVSLTCLIKDFFPPDIDVEWQSNGQQEPESKYRTTPPQLDEDGSYFLYSKLSVDKSRWQRGDTFICAVMHEALHNHYTQESLSHSPGK

binding [5]: binds
B5: wild-type canine IgG-B Fc polypeptide (protein, not shown: small tags and cut ends)
chain: PAPEMLGGPSVFIFPPKPKDTLLIARTPEVTCVVVDLDPEDPEVQISWFVDGKQMQTAKTQPREEQFNGTYRVVSVLPIGHQDWLKGKQFTCKVNNKALPSPIERTISKARGQAHQPSVYVLPPSREELSKNTVSLTCLIKDFFPPDIDVEWQSNGQQEPESKYRTTPPQLDEDGSYFLYSKLSVDKSRWQRGDTFICAVMHEALHNHYTQESLSHSPGK
